Laboratory results: PubChem BioAssay AID504744 (Drosophila RNAi Screening Center, 2011)
The deposit covers about 23,000 reagents; shown is an unselected part of those with a known target gene and a result. Over the whole deposit, 98 (0.43%) are marked active. 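Only hit calls are given; the phospho-dAkt signals, z-scores and hit direction were not deposited.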 The numbers tell different reagents against one gene apart. Names joined by + are all predicted targets of the reagent.

Purpose: 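Uncover factors, including feedback loops, that control dAkt activation in fly cells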 (primary screen)
System: Drosophila Kc167 cells
Reagent: long dsRNA against Drosophila genes, 250 ng dsRNA per well of a 384-well plate
Duration: 3 days of knock-down, then overnight serum-free starvation before stimulation
Treatment: bovine insulin at 387 nM for 10 minutes after 12 h without serum
Measured: 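Per-well phospho-dAkt level from an in-cell fluorescent antibody stain, divided by a DNA-dye signal; log2 residuals turned into z-scores that take cell number into account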
Hit rule: 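Under insulin, a gene counts as a hit if the average z-score of two replicates lies above 2.5 or below -2.5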

no.	gene	dsRNA no.	outcome
1	CG30039	1	inactive
2	ver	1	inactive
3	Nsun5	1	inactive
4	Pitslre	1	inactive
5	CG7342	1	inactive
6	Exo70	1	inactive
7	CG5645	1	inactive
8	sim	1	inactive
9	CG32971	1	inactive
10	Atat	1	inactive
11	CG13196	1	inactive
12	roh	1	inactive
13	CG4287	1	inactive
14	Cib2	1	inactive
15	CG7523	1	inactive
16	sdk	1	inactive
17	CG13427	1	inactive
18	Coq4 + frc	1	inactive
19	Coq4 + frc	2	inactive
20	CG6701	1	inactive
21	CG31104	1	inactive
22	Fip1	1	inactive
23	shn	1	inactive
24	shn	2	inactive
25	bma	1	inactive
26	bma	2	inactive
27	Bgb	1	inactive
28	Urod	1	inactive
29	Pld3	1	inactive
30	COX6AL2	1	inactive
31	CG14423	1	inactive
32	ChAT	1	inactive
33	ChAT	2	inactive
34	ChAT	3	inactive
35	CG31380	1	inactive
36	CG9886	1	inactive
37	Acp53C14a	1	inactive
38	Psf1	1	inactive
39	LSm1	1	inactive
40	lncRNA:noe	1	inactive
41	Shawn + Tyler	1	inactive
42	Shawn + Tyler	2	inactive
43	Tak1	1	active
44	Tak1	2	inactive
45	Tak1	3	inactive
46	CG7519	1	inactive
47	ECSIT	1	inactive
48	RpL37A	1	inactive
49	CG30022	1	inactive
50	mtm	1	inactive
51	CG7631	1	inactive
52	CG14126 (retired record)	1	inactive
53	Rh3	1	inactive
54	Gnpnat	1	inactive
55	CG31664	1	inactive
56	Iru	1	inactive
57	tHMG2	1	inactive
58	CG11360	1	inactive
59	CG11360	2	inactive
60	CG4440	1	inactive
61	CG8028	1	inactive
62	Taf3	1	inactive
63	CG11349	1	inactive
64	CG4459	1	inactive
65	CG10417	1	inactive
66	CG13339	1	inactive
67	Eps-15	1	inactive
68	CG15160	1	inactive
69	Prp40	1	inactive
70	Pdp	1	inactive
71	Tsp42Ed	1	inactive
72	robo3	1	inactive
73	robo3	2	inactive
74	robo3	3	inactive
75	CG10802	1	inactive
76	mute	1	inactive
77	mute	2	inactive
78	CG13461	1	inactive
79	Rcd2	1	inactive
80	sa	1	inactive
81	Chd64	1	inactive
82	CG34234 + Dh44-R2	1	inactive
83	Gbs-76A	1	inactive
84	CG30384	1	inactive
85	Non3	1	inactive
86	CG4278	1	inactive
87	qless	1	inactive
88	qless	2	inactive
89	isoQC	1	inactive
90	CG15263	1	inactive
91	Tsp42Ej	1	inactive
92	CG32816	1	inactive
93	sals	1	inactive
94	sals	2	inactive
95	Mtp	1	inactive
96	CG13527	1	inactive
97	CG17477	1	inactive
98	CG14669	1	inactive
99	CG14669	2	inactive
100	CG14669	3	inactive
101	CG14669	4	inactive
102	HP1b	1	inactive
103	CG17839	1	inactive
104	CG17839	2	inactive
105	nAChRbeta2	1	inactive
106	CG31870	1	inactive
107	rudhira	1	inactive
108	rudhira	2	inactive
109	CG9254	1	inactive
110	CG17744	1	inactive
111	CG30087	1	inactive
112	CG31259	1	inactive
113	lbl	1	inactive
114	pcs	1	inactive
115	CG12496	1	inactive
116	CG1024	1	inactive
117	lds	1	inactive
118	CLIP-190	1	inactive

17 consecutive records from above:
no.	gene	dsRNA no.	outcome
69	Prp40	1	inactive
70	Pdp	1	inactive
71	Tsp42Ed	1	inactive
72	robo3	1	inactive
73	robo3	2	inactive
74	robo3	3	inactive
75	CG10802	1	inactive
76	mute	1	inactive
77	mute	2	inactive
78	CG13461	1	inactive
79	Rcd2	1	inactive
80	sa	1	inactive
81	Chd64	1	inactive
82	CG34234 + Dh44-R2	1	inactive
83	Gbs-76A	1	inactive
84	CG30384	1	inactive
85	Non3	1	inactive

Next entries:
no.	gene	dsRNA no.	outcome
119	RpS5b	1	active
120	Osi1	1	inactive
121	CG31678	1	inactive
122	CG31678	2	inactive
123	CG30015	1	inactive
124	CG30015	2	inactive
125	CG30015	3	inactive
126	Rpt6R	1	inactive
127	CG6937 + btn	1	inactive
128	CG10347	1	inactive
129	CG31683 + CG18858	1	inactive
130	CG14868	1	inactive
131	CG4630	1	inactive
132	egg	1	inactive
133	egg	2	inactive
134	AP-1mu	1	inactive
135	CycG	1	inactive
136	Nelf-E	1	inactive
137	Nepl12	1	inactive
138	Cys	1	inactive
139	Nadk1a	1	inactive
140	Nadk1a	2	inactive
141	hiw	1	inactive
142	hiw	2	inactive
143	MED26	1	inactive
144	MED26	2	inactive
145	MED26	3	inactive
146	Srx	1	inactive
147	CR33283	1	inactive
148	Lmpt	1	inactive
149	Lmpt	2	inactive
150	Lmpt	3	inactive
151	Lmpt	4	inactive
152	Lmpt	5	inactive
153	Lmpt	6	inactive
154	Lmpt	7	inactive
155	UbcE2H	1	inactive
156	ND-18	1	inactive
157	ND-ASHI	1	inactive
158	CG42673	1	inactive
159	CG42673	2	inactive
160	CG42673	3	inactive
161	CG42673	4	inactive
162	CG42673	5	inactive
163	CG42673	6	inactive
164	dop	1	inactive
165	Pxd	1	inactive
166	mura	1	inactive
167	mura	2	inactive
168	eIF5B	1	inactive
169	eIF5B	2	inactive
170	se	1	inactive
171	CG7299	1	inactive
172	Shal	1	inactive
173	Shal	2	inactive
174	Atg2	1	inactive
175	Him	1	inactive
176	Wbp2	1	inactive
177	CR9337	1	inactive
178	CG1958	1	inactive
179	edin	1	inactive
180	CG16904	1	inactive
181	sqh	1	inactive
182	CG34046 (retired record)	1	inactive
183	mon2	1	inactive
184	Cad96Ca	1	inactive
185	Cad96Ca	2	inactive
186	tw	1	inactive
187	CG6282	1	inactive
188	Ndfip	1	inactive
189	Cpes	1	inactive
190	beag	1	inactive
191	CG18180	1	inactive
192	CG15127	1	inactive
193	CG15127	2	inactive
194	CG3788	1	inactive
195	CG16894	1	inactive
196	CG16894	2	inactive
197	CG6041	1	inactive
198	Gr28a	1	inactive
199	CG6565	1	inactive
200	GstD2	1	inactive
